The values below come from PubChem BioAssay AID256 (DTP/NCI, 2004).

The list is a part of this screen's results and no random one: it gathers tests that were run many times, whatever their T/C, doses with no T/C, and many T/C values between a quarter and a half above the control. Other doses and runs of a compound stand elsewhere. T/C is the treated group as % of the vehicle group. Some doses have a count of surviving animals in place of a T/C: the source holds a T/C of zero for them, seemingly a mark for toxic or unscored doses. Some survivor counts are full or nearly so, which does not show that the dose was tolerated: the source hardly ever lists a survival T/C far under the control, and the zero likely stands for such cases as well. Survivors were counted at the toxicity check, usually on the fifth day, unless a day is given; later deaths do not show. Schedules are NCI's codes, read here as Q, the interval in days (D) or hours (H), X, the number of doses. Where survival is the endpoint, this PubChem deposit counts one and a half times the control or more as active, and values a quarter to a half above the control carry no call in these data; other NCI protocols may use other cut-offs. Additions like (4×) stand for listed records that agree. Some T/C values are followed by the survivors on the day toxicity was checked, most often the fifth; where none is given, no animal had died by that day. Some entries hold several experiments; the results are listed from low to high.

This experiment concerns CD2F1 mice, L1210 leukemia ip, survival T/C. The experiment in a line: NCI In Vivo Anticancer Drug Screen. Data for tumor model L1210 Leukemia (intraperitoneal) in CD2F1 (CDF1) mice. The following applies: higher T/C = longer survival. Summed up: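 Ratio T/C, where T is the treated-group value and C the vehicle-dosed control value, from mice implanted with a transplantable tumor.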

Where [1] appears, read: T/C endpoint: mean survival time, dose: 400.0 mg/kg/injection, schedule: Q01DX001 (ip), vehicle: saline with Tween-80.
Setting [2] is: T/C endpoint: mean survival time, dose: 50.0 mg/kg/injection, schedule: Q01DX009 (ip), vehicle: Klucel (hydroxypropylcellulose) (HPC).
Setting [3] is: T/C endpoint: mean survival time, dose: 100.0 mg/kg/injection, schedule: Q01DX009 (ip), vehicle: Klucel (hydroxypropylcellulose) (HPC).
[4] abbreviates: T/C endpoint: mean survival time, dose: 200.0 mg/kg/injection, schedule: Q01DX009 (ip), vehicle: Klucel (hydroxypropylcellulose) (HPC).
The mark [5] stands for this setting: T/C endpoint: mean survival time, dose: 400.0 mg/kg/injection, schedule: Q04DX003 (ip), vehicle: saline with Tween-80.
Setting [6] is: T/C endpoint: mean survival time, dose: 200.0 mg/kg/injection, schedule: Q01DX009 (ip), vehicle: saline with Tween-80.
Setting [7] is: T/C endpoint: median survival time, dose: 200.0 mg/kg/injection, schedule: Q01DX009 (ip), vehicle: acid diluted with saline.

Regarding `Cc1cc(N(C)C)c(C(C)C)cc1O` (tested in a mixture with another compound), the survivor count reads like this: (T/C endpoint: mean survival time, dose: 0.5 mg/kg/injection, schedule: Q01DX001 (ip), vehicle: saline) 0 of 6; (T/C endpoint: mean survival time, dose: 1.0 mg/kg/injection, schedule: Q01DX001 (ip), vehicle: saline) 0 of 6; (T/C endpoint: mean survival time, dose: 2.0 mg/kg/injection, schedule: Q01DX001 (ip), vehicle: saline) 0 of 6; (T/C endpoint: mean survival time, dose: 3.75 mg/kg/injection, schedule: Q01DX001 (ip), vehicle: saline) 0 of 6; (T/C endpoint: mean survival time, dose: 7.5 mg/kg/injection, schedule: Q01DX001 (ip), vehicle: saline) 0 of 6; (T/C endpoint: mean survival time, dose: 15.0 mg/kg/injection, schedule: Q01DX001 (ip), vehicle: saline) 0 of 6. The survivor count (T/C endpoint: mean survival time, dose: 18.8 mg/kg/injection, schedule: Q01DX001 (ip), vehicle: saline) is reported as 0 of 6; the survivor count (T/C endpoint: mean survival time, dose: 37.5 mg/kg/injection, schedule: Q01DX001 (ip), vehicle: saline) is reported as 0 of 6; the survivor count (T/C endpoint: mean survival time, dose: 75.0 mg/kg/injection, schedule: Q01DX001 (ip), vehicle: saline) is 0 of 6; the survivor count (T/C endpoint: mean survival time, dose: 250.0 micrograms/kg/injection, schedule: Q01DX001 (ip), vehicle: saline) was 0 of 6.
For the compound `COc1cc2c(cc1OC)-c1cc(C)c3cc(OC)c(OC)cc3[n+]1CC2`, the survivor count (T/C endpoint: mean survival time, dose: 200.0 mg/kg/injection, schedule: Q01DX009 (ip), vehicle: other) was 1 of 6.
On to `COc1cc(NC(C)CCCN)c2ncccc2c1` (stereo not drawn), for which the survivor count is, setting by setting: (T/C endpoint: mean survival time, dose: 100.0 mg/kg/injection, schedule: Q04DX003 (ip), vehicle: saline) 6 of 6; (T/C endpoint: mean survival time, dose: 200.0 mg/kg/injection, schedule: Q04DX003 (ip), vehicle: saline) 0 of 6; (T/C endpoint: mean survival time, dose: 400.0 mg/kg/injection, schedule: Q04DX003 (ip), vehicle: saline) 0 of 6.
Take `O=C1C=C(N2CC2)C(=O)C(N2CC2)=C1N1CC1`: the T/C was 148 % of control (T/C endpoint: median survival time, dose: 25.0 micrograms/kg/injection, schedule: Q01DX009 (ip), vehicle: saline with Tween-80); 128 % of control (T/C endpoint: median survival time, dose: 50.0 micrograms/kg/injection, schedule: Q01DX009 (ip), vehicle: saline); 129 % of control (T/C endpoint: median survival time, dose: 100.0 micrograms/kg/injection, schedule: Q01DX009 (ip), vehicle: saline with Tween-80); 142 % of control [1 of 1 alive] (T/C endpoint: median survival time, dose: 100.0 micrograms/kg/injection, schedule: Q01DX009 (ip), vehicle: saline); 147 % of control (T/C endpoint: median survival time, dose: 200.0 micrograms/kg/injection, schedule: Q01DX009 (ip), vehicle: saline).
Turning to `CCOC(=O)C(N)CSC(=O)NC` (stereo not drawn), the T/C (T/C endpoint: mean survival time, dose: 400.0 mg/kg/injection, schedule: Q01DX009 (ip), vehicle: saline) is 132 and 133 % of control.
As to `Nc1nc(N)c(N)c(/C=C/c2ccccc2)n1`, where the note is “T/C endpoint: mean survival time, dose: 10.0 mg/kg/injection, schedule: Q01DX009 (ip), vehicle: water”, the survivor count was 1 of 6.
`NC(=O)c1ccccc1N=NN(CCF)CCF`: the survivor count (T/C endpoint: mean survival time, dose: 18.0 mg/kg/injection, schedule: Q04DX003 (ip), vehicle: saline with Tween-80) is reported as 4 of 6.
For `N#CC1C(C#N)C1C#N` (stereo not drawn), the survivor count under setting [1] is 0 of 3.
On to `CN(C)N=Nc1ccc(/C=C/C(=O)O)cc1`, for which the T/C is 127 % of control (2×) under setting [2], 142 % of control under setting [3] and 142 % of control under setting [4]. The survivor count (T/C endpoint: mean survival time, dose: 400.0 mg/kg/injection, schedule: Q01DX009 (ip), vehicle: Klucel (hydroxypropylcellulose) (HPC)) is 4 of 6.
As to `COc1ccc(C(=O)C(CN(C)C)CN(C)C)cc1`, the survivor count (T/C endpoint: median survival time, dose: 50.0 mg/kg/injection, schedule: Q01DX009 (ip), vehicle: saline) is 1 of 6.
For `Cc1nc2ccccc2[nH]1`, under setting [1], the survivor count is recorded as 0 of 3.
On to `O=c1[nH]cnc2c1CN(c1ccccc1)C2`, for which the survivor count (T/C endpoint: mean survival time, dose: 300.0 mg/kg/injection, schedule: Q01DX001 (ip), vehicle: saline) is 0 of 6.
On to `COc1ccc2cc[n+](C)c(Cc3ccc(OC)c(Oc4ccc(Cc5c(OC)ccc6cc[n+](C)cc56)cc4)c3)c2c1`, for which the survivor count runs as follows: (T/C endpoint: mean survival time, dose: 12.5 mg/kg/injection, schedule: Q04DX003 (ip), vehicle: other) 1 of 3; (T/C endpoint: mean survival time, dose: 25.0 mg/kg/injection, schedule: Q04DX003 (ip), vehicle: other) 0 of 3.
As for `CC1(C)C2CCC1(C(=O)O)CC2`, under setting [5], the survivor count is recorded as 6 of 6.
As to `CNC(=O)OC(C)CC(O)(C(F)(F)F)C(F)(F)F` (stereo not drawn), the survivor count reads like this: (T/C endpoint: mean survival time, dose: 200.0 mg/kg/injection, schedule: Q04DX003 (ip), vehicle: Klucel (hydroxypropylcellulose) (HPC)) 6 of 6; (T/C endpoint: mean survival time, dose: 400.0 mg/kg/injection, schedule: Q04DX003 (ip), vehicle: Klucel (hydroxypropylcellulose) (HPC)) 0 of 6.
Take `CCCCOC(=O)c1ccccc1C(=O)O.CCCCOC(=O)c1ccccc1C(=O)O.[Cu+2]`: under “T/C endpoint: mean survival time, dose: 25.0 mg/kg/injection, schedule: Q04DX003 (ip), vehicle: saline with Tween-80”, the T/C is 126 % of control [2 of 3 alive]. Besides, the survivor count reads like this: (T/C endpoint: mean survival time, dose: 50.0 mg/kg/injection, schedule: Q04DX003 (ip), vehicle: saline with Tween-80) 1 of 3; (T/C endpoint: mean survival time, dose: 100.0 mg/kg/injection, schedule: Q04DX003 (ip), vehicle: saline with Tween-80) 0 of 3; (T/C endpoint: mean survival time, dose: 200.0 mg/kg/injection, schedule: Q04DX003 (ip), vehicle: saline with Tween-80) 0 of 3; under setting [5], 0 of 3.
For `COc1cc(C(C)=O)cc([N+](=O)[O-])c1O`, the survivor count under setting [6] was 3 of 6.
Turning to `O=C(Nc1cccc(O)c1)C1CC1`, the survivor count under setting [1] is recorded as 2 of 6.
As to `CS(=O)(=O)OCCN(CCOS(C)(=O)=O)c1ccc(C=Nc2ccc(-c3csc(COc4ccccc4)n3)cc2)cc1`, the T/C was 125 % of control (T/C endpoint: mean survival time, dose: 12.5 mg/kg/injection, schedule: Q01DX008 (ip), vehicle: Klucel (hydroxypropylcellulose) (HPC)); 135 % of control (T/C endpoint: mean survival time, dose: 25.0 mg/kg/injection, schedule: Q01DX008 (ip), vehicle: Klucel (hydroxypropylcellulose) (HPC)); 125 % of control (T/C endpoint: mean survival time, dose: 25.0 mg/kg/injection, schedule: Q01DX009 (ip), vehicle: Klucel (hydroxypropylcellulose) (HPC)); 135 % of control (T/C endpoint: mean survival time, dose: 50.0 mg/kg/injection, schedule: Q01DX008 (ip), vehicle: Klucel (hydroxypropylcellulose) (HPC)); 143 % of control under setting [2]; 137 % of control (T/C endpoint: mean survival time, dose: 100.0 mg/kg/injection, schedule: Q01DX008 (ip), vehicle: Klucel (hydroxypropylcellulose) (HPC)). Moreover, the T/C under setting [3] was 142 % of control; the T/C (T/C endpoint: mean survival time, dose: 200.0 mg/kg/injection, schedule: Q01DX008 (ip), vehicle: Klucel (hydroxypropylcellulose) (HPC)) was 133 % of control; the T/C under setting [4] is 131 % of control [5 of 6 alive].
In the case of `Cc1ccc(NC(=O)CI)cc1`, the survivor count is listed as 0 of 3 (T/C endpoint: mean survival time, dose: 200.0 mg/kg/injection, schedule: Q04DX002 (ip), vehicle: other) and 0 of 3 (T/C endpoint: mean survival time, dose: 400.0 mg/kg/injection, schedule: Q04DX002 (ip), vehicle: other).
With `CCOC(=O)c1c[nH]c2oc(/C=N/N3CC(CN4CCOCC4)OC3=O)cc2c1=O` (stereo not drawn), the T/C is, setting by setting: (T/C endpoint: mean survival time, dose: 100.0 mg/kg/injection, schedule: Q01DX009 (ip), vehicle: other) 136 % of control; (T/C endpoint: mean survival time, dose: 100.0 mg/kg/injection, schedule: Q01DX009 (ip), vehicle: saline) 125 and 126 % of control [5 of 6 alive]; under setting [6], 148 % of control; (T/C endpoint: mean survival time, dose: 200.0 mg/kg/injection, schedule: Q01DX009 (ip), vehicle: saline) 143 % of control; (T/C endpoint: median survival time, dose: 100.0 mg/kg/injection, schedule: Q01DX009 (ip), vehicle: acid diluted with saline) 125 % of control; (T/C endpoint: median survival time, dose: 200.0 mg/kg/injection, schedule: Q01DX005 (ip), vehicle: other) 137 % of control. For the same compound, under setting [7], the T/C is 144 % of control. Besides, the survivor count by setting is: under setting [7], 3 of 5; (T/C endpoint: median survival time, dose: 400.0 mg/kg/injection, schedule: Q01DX009 (ip), vehicle: acid diluted with saline) 5 of 6; (T/C endpoint: median survival time, dose: 800.0 mg/kg/injection, schedule: Q01DX005 (ip), vehicle: other) 5 of 6.
